# Source: the supplement of paper PMC10849652
# Protein sequences, listed by entry. Tags and fused reporters are not part of them. Lines headed by an entry give the natural chain unless they say otherwise; changes in a name come on top.
# UniProt Q92934: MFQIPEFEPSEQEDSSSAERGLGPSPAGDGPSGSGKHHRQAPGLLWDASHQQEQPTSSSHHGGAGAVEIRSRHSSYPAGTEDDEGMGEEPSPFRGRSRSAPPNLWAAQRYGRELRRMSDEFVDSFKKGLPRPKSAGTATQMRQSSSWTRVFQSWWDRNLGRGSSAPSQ
# UniProt Q86UU0: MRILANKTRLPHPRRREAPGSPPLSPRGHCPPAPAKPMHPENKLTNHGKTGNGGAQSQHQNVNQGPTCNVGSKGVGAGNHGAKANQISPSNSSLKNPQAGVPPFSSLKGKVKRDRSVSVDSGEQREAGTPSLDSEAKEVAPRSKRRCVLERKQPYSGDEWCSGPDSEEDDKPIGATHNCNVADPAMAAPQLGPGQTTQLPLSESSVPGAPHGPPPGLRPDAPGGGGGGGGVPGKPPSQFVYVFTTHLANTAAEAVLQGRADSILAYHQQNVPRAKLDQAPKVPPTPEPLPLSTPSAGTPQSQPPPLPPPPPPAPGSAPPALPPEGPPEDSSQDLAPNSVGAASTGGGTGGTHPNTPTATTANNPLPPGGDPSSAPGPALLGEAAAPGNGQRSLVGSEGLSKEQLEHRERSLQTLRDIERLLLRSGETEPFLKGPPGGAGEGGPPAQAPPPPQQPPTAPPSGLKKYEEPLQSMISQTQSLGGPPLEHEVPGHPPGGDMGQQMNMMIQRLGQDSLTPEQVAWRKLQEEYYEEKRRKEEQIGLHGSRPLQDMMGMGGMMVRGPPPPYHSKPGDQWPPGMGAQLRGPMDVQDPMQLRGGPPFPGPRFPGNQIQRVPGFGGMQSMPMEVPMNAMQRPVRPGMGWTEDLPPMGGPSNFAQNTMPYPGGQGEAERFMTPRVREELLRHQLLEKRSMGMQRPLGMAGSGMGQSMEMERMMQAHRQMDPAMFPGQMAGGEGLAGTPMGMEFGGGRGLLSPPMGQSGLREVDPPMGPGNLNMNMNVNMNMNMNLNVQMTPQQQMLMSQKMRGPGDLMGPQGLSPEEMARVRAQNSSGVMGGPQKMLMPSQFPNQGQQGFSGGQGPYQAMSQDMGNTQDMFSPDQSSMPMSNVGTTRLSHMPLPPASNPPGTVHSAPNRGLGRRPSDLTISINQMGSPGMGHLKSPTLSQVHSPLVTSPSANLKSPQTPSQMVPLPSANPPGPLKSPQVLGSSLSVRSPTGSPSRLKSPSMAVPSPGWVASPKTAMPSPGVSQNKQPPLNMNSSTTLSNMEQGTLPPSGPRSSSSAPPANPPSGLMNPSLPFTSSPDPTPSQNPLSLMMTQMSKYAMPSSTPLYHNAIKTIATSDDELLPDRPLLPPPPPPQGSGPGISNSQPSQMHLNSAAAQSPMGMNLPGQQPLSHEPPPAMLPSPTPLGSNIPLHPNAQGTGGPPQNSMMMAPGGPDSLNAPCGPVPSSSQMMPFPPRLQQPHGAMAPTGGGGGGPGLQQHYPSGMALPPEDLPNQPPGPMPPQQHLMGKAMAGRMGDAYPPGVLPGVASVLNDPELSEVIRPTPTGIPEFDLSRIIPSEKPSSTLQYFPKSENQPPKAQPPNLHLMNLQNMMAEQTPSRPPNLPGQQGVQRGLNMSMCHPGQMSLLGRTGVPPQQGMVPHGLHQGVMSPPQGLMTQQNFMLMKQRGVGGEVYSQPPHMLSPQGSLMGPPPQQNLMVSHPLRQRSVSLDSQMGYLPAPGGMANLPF
# UniProt Q9UHQ4: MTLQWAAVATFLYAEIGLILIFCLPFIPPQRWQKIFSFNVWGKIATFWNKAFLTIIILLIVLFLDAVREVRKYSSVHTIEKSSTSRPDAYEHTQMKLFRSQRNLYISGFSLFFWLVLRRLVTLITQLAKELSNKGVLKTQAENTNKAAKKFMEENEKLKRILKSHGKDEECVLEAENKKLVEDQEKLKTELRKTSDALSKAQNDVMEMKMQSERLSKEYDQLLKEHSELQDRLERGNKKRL
# UniProt Q8WUW1: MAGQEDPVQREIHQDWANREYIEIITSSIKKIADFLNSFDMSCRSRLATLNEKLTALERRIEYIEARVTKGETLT
# UniProt P54132: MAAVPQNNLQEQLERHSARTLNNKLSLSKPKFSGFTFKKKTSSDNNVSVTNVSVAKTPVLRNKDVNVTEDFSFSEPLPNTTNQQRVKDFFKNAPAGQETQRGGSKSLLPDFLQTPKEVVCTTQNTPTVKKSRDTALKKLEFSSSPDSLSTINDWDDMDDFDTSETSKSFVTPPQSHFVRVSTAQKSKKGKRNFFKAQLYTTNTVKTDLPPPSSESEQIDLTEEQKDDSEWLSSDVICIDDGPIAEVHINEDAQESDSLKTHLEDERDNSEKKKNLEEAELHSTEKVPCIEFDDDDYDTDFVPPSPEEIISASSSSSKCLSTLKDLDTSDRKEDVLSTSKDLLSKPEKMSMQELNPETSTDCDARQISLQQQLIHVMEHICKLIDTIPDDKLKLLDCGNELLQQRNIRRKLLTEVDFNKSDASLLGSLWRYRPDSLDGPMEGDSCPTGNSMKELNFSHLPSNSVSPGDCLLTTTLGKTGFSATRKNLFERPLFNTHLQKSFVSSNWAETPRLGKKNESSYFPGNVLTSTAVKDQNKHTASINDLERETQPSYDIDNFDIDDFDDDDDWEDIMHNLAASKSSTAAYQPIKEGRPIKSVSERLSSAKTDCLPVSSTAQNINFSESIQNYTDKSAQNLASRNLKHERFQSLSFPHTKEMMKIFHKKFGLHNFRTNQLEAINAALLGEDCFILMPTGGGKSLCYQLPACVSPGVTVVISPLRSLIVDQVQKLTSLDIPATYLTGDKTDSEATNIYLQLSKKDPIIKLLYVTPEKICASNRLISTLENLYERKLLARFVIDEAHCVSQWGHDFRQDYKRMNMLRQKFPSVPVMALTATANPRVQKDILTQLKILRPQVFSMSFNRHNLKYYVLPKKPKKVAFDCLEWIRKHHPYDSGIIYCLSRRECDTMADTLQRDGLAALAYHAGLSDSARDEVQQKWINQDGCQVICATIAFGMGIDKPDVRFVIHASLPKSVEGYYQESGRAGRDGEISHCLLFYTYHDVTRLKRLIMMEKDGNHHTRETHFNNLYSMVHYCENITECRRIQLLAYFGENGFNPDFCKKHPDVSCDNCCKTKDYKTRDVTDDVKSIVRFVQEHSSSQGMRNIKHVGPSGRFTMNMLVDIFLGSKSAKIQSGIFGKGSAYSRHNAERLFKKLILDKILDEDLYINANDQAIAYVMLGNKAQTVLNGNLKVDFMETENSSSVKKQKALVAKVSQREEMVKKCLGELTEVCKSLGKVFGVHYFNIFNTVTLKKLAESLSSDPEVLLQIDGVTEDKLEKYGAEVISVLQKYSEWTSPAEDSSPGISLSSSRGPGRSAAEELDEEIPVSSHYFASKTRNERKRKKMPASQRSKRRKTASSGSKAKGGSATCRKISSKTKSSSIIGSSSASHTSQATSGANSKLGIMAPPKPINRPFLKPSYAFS
# UniProt Q6UW56: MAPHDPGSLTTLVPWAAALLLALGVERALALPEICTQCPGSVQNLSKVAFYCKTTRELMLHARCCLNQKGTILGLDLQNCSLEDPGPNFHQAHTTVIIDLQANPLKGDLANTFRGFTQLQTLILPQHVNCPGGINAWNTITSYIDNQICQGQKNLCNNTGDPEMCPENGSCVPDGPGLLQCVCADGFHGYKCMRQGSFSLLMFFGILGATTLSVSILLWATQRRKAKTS
# UniProt Q9BX63: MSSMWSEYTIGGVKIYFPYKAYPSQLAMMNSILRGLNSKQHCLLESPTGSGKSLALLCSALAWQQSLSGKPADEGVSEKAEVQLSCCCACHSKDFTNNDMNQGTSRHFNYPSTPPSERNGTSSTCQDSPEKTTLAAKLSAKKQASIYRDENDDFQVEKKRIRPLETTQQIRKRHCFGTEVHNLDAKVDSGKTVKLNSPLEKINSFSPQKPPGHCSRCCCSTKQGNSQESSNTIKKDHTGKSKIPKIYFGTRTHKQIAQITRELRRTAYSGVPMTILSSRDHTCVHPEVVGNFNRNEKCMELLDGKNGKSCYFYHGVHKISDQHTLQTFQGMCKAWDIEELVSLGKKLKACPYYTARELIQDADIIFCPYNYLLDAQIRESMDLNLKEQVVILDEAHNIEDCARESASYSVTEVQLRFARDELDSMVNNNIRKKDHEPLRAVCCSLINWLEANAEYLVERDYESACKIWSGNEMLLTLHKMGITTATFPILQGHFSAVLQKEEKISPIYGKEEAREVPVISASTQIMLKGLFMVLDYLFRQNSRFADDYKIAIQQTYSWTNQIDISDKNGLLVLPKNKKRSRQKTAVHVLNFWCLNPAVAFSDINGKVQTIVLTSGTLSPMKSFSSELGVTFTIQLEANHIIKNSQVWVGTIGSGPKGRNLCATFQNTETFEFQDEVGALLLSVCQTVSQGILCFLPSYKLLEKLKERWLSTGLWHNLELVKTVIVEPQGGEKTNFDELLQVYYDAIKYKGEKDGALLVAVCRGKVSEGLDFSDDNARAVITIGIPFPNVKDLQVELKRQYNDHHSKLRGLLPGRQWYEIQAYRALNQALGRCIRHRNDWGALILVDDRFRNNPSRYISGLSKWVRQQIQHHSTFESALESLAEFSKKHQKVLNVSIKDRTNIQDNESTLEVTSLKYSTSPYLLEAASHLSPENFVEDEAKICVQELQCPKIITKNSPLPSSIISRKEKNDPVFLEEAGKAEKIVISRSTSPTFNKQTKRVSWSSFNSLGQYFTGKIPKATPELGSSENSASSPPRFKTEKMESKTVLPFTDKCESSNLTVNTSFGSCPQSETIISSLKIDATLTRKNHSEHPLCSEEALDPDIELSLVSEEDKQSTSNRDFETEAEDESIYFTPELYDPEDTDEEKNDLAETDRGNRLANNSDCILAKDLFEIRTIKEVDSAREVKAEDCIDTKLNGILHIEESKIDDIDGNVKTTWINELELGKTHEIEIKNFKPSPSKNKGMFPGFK
# UniProt Q7Z569: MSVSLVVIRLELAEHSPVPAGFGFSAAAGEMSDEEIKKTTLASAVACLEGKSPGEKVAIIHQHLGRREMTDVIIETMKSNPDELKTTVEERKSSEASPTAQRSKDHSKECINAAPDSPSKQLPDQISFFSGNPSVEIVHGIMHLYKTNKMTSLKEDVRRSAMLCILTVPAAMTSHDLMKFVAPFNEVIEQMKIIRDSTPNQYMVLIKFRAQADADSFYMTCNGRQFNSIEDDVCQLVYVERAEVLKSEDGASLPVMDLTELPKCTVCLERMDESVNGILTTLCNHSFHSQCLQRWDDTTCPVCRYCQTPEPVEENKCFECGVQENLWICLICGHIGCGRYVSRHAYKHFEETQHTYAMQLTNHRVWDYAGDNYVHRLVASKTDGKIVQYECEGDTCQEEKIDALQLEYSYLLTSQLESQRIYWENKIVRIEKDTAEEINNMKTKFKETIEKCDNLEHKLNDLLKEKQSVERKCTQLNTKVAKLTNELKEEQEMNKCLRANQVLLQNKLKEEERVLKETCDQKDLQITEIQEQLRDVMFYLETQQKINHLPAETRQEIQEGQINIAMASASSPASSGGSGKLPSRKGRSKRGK
# UniProt O14965: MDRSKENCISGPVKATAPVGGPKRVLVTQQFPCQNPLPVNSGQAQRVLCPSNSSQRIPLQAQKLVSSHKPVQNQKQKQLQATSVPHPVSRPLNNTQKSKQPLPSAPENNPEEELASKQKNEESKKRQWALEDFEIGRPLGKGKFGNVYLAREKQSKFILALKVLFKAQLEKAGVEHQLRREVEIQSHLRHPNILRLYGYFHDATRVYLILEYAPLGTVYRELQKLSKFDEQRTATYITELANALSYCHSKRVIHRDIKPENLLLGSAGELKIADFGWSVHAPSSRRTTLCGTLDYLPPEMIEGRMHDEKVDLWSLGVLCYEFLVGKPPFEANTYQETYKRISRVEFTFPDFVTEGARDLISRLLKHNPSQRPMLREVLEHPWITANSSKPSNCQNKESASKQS
# This is one part of the list. Residues, ends and D or L forms follow the SMILES beside them. *: point of attachment. Cbz = O=C(OCc1ccccc1)*
# Key:
# Test in all cases: log2 fold change, soluble protein after heating vs DMSO (PISA); higher = thermal stabilisation; K562 cells, 10 uM, 30 min; active = over 0.2 and 3.5 SD of the protein, either way, in both replicates (recomputed)
# IRAK-1-4 Inhibitor I = compound: C1COCCN1CCN2C3=CC=CC=C3N=C2NC(=O)C4=CC(=CC=C4)[N+](=O)[O-] [IRAK-1-4 Inhibitor I]
# How it was run: (§1)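 Values are thermal stability changes relative to control samples and are taken from duplicates. They are stated as log2 fold changes. Before quantification by TMTpro 16plex LC-MS/MS with equalised channel sums, K562 cells at 2×10^6 cells/mL were treated with 10 μM compound for 30 min, heated in aliquots for 3 min across 48°C-58°C, pooled, extracted in PBS with 0.5% NP-40 at 4°C, and centrifuged at 21,000xg for 90 min to give the soluble supernatant.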
# ibrutinib = compound: C=CC(=O)N1CCC[C@@H](n2nc(-c3ccc(Oc4ccccc4)cc3)c3c(N)ncnc32)C1 [ibrutinib]
# How it was run: as §1
# [1] = compound: CC(=O)c1cnc2ccc(-c3cc(Cl)c(O)c(Cl)c3)nc2c1N[C@H]1CC[C@H](CN(C)C)CC1
# How it was run: as §1
# ralimetinib = compound: CC(C)(C)Cn1c(N)nc2ccc(-c3[nH]c(C(C)(C)C)nc3-c3ccc(F)cc3)nc21 [ralimetinib]
# How it was run: as §1
# [2] = compound: CC(C)(O)CC(=O)NCCn1ccc2ncnc(Nc3ccc(Oc4cccc(C(F)(F)F)c4)c(Cl)c3)c21
# How it was run: as §1
# [3] = compound: CC(C)C1=C2N=C(C=C(N2N=C1)NCC3=CC=CC=C3)NCCCCCCN
# How it was run: as §1
# [4] = compound: CC(C)C[C@@H](C=O)NC(=O)[C@H](CC(C)C)NC(=O)[C@H](CC(C)C)NC(=O)OCc1ccccc1
# How it was run: as §1
# pinometostat = compound: CC(C)N(C[C@H]1O[C@@H](n2cnc3c(N)ncnc32)[C@H](O)[C@@H]1O)[C@H]1C[C@@H](CCc2nc3cc(C(C)(C)C)ccc3[nH]2)C1 [pinometostat]
# How it was run: as §1
# [5] = compound: CC1=C(C=C(C=C1)NC(=O)C2=CC(=CC=C2)C(C)(C)C#N)NC3=CC4=C(C=C3)N=CN(C4=O)C
# How it was run: as §1
# [6] = compound: CC1=C(C=C(C=C1)NC(=O)C2=CC(=CC=C2)N(C)C)NC(=O)C3=CC=C(C=C3)O
# How it was run: as §1
# [7] = compound: CC1=CC=C(C=C1)SC2=C3C=C(SC3=CN=C2)C(=O)N
# How it was run: as §1
# [8] = compound: CC1=NC(=CC=C1)C2=C(N=C(N2)C(C)(C)C)C3=CC4=NC=CN=C4C=C3
# How it was run: as §1
# Nexturastat A = compound: CCCCN(Cc1ccc(C(=O)NO)cc1)C(=O)Nc1ccccc1 [Nexturastat A]
# How it was run: as §1
# vemurafenib = compound: CCCS(=O)(=O)Nc1ccc(F)c(C(=O)c2c[nH]c3ncc(-c4ccc(Cl)cc4)cc23)c1F [vemurafenib]
# How it was run: as §1
# [9] = compound: CCCS(=O)(=O)Nc1ccc(F)c(C(=O)c2c[nH]c3ncc(Cl)cc23)c1F
# How it was run: as §1
# [10] = compound: CCCc1cc(C)[nH]c(=O)c1CNC(=O)c1cc(-c2ccnc(N3CCN(C)CC3)c2)cc2c1cnn2C(C)C
# How it was run: as §1
# givinostat = compound: CCN(CC)Cc1ccc2cc(COC(=O)Nc3ccc(C(=O)NO)cc3)ccc2c1 [givinostat]
# How it was run: as §1
# barasertib = compound: CCN(CCCOc1ccc2c(Nc3cc(CC(=O)Nc4cccc(F)c4)[nH]n3)ncnc2c1)CCOP(=O)(O)O [barasertib]
# How it was run: as §1
# [11] = compound: CC1=C(C2=C(C=C1)C(=O)C3=CC=CC=C3N2CCCN)C
# How it was run: as §1
# [12] = compound: CC1=C(C(CC(=O)N1)C2=CC=C(C=C2)C(F)(F)F)C(=O)NC3=C(C=C4C(=C3)C=NN4)F
# How it was run: as §1
Target,log2 fold change (IRAK-1-4 Inhibitor I),log2 fold change (ibrutinib),log2 fold change [1],log2 fold change (ralimetinib),log2 fold change [2],log2 fold change [3],log2 fold change [4],log2 fold change (pinometostat),log2 fold change [5],log2 fold change [6],log2 fold change [7],log2 fold change [8],log2 fold change (Nexturastat A),log2 fold change (vemurafenib),log2 fold change [9],log2 fold change [10],log2 fold change (givinostat),log2 fold change (barasertib),log2 fold change [11],log2 fold change [12]
BAD (UniProt Q92934),inactive: 0.057,inactive: 0.024,inactive: -0.061,inactive: -0.054,inactive: 0.077,inactive: -0.04,inactive: -0.041,inactive: 0.012,inactive: -0.198,inactive: 0.007,inactive: -0.021,inactive: -0.051,active: -0.324,inactive: -0.076,inactive: -0.037,inactive: 0.05,inactive: -0.133,inactive: -0.003,–,–
BCL9L (UniProt Q86UU0),inactive: -0.045,inactive: 0,inactive: 0.04,inactive: -0.024,inactive: -0.009,inactive: 0.015,inactive: 0.092,inactive: 0.013,inactive: -0.046,inactive: -0.012,inactive: 0.005,inactive: -0.033,inactive: -0.033,inactive: -0.037,inactive: -0.014,inactive: -0.029,inactive: 0.043,inactive: -0.001,inactive: 0.101,–
BCAP29 isoform 2 (UniProt Q9UHQ4),inactive: 0.051,inactive: -0.014,inactive: 0.011,inactive: -0.094,inactive: 0.111,inactive: -0.106,inactive: 0.007,inactive: -0.012,inactive: -0.078,inactive: 0.006,inactive: 0.015,inactive: 0.01,inactive: -0.032,inactive: -0.033,inactive: -0.036,inactive: -0.116,inactive: -0.075,inactive: 0.025,inactive: 0.052,–
BRK1 isoform 2 (UniProt Q8WUW1),inactive: -0.026,inactive: -0.004,inactive: -0.045,inactive: -0.037,inactive: -0.018,inactive: 0.058,inactive: -0.053,inactive: -0.157,inactive: -0.055,inactive: -0.076,inactive: 0.103,inactive: 0.069,inactive: -0.02,inactive: 0.044,inactive: -0.004,inactive: 0.002,inactive: 0.022,inactive: 0.032,inactive: 0.145,–
BLM (UniProt P54132),inactive: -0.086,inactive: -0.075,inactive: -0.168,inactive: -0.062,–,inactive: -0.122,inactive: -0.069,inactive: -0.004,inactive: 0.017,inactive: -0.058,inactive: 0.032,inactive: 0.014,–,inactive: -0.014,inactive: 0.06,inactive: -0.055,inactive: 0.047,inactive: 0.011,inactive: 0.292,inactive: -0.06
ATRAID isoform 3 (UniProt Q6UW56),inactive: -0.041,inactive: -0.044,inactive: -0.031,inactive: 0.003,–,inactive: -0.038,inactive: 0.041,inactive: 0,inactive: -0.045,inactive: -0.007,inactive: -0.026,inactive: -0.007,–,inactive: -0.061,inactive: -0.072,inactive: -0.012,inactive: 0.022,inactive: -0.013,inactive: 0.077,inactive: 0.144
BRIP1 (UniProt Q9BX63),inactive: 0.017,inactive: 0.12,inactive: -0.073,inactive: 0.006,inactive: 0.039,inactive: -0.036,inactive: -0.064,inactive: 0.084,inactive: -0.049,inactive: -0.007,inactive: -0.009,inactive: -0.03,inactive: 0.23,inactive: 0.184,inactive: 0.045,–,inactive: 0.004,inactive: -0.162,active: 0.333,–
BRAP (UniProt Q7Z569),inactive: -0.032,inactive: -0.066,inactive: -0.018,inactive: 0.16,inactive: -0.016,inactive: -0.11,inactive: -0.093,inactive: 0.033,inactive: 0.057,inactive: 0.075,inactive: 0.023,inactive: 0.029,inactive: -0.031,inactive: 0.037,inactive: 0.151,inactive: 0.08,inactive: -0.081,inactive: 0.08,active: 0.263,–
AURKA (UniProt O14965),inactive: -0.05,inactive: 0.193,active: 0.914,inactive: 0.062,inactive: -0.056,inactive: -0.128,inactive: 0.16,inactive: 0.033,inactive: -0.008,inactive: -0.041,inactive: -0.011,inactive: -0.036,inactive: 0.096,inactive: -0.026,inactive: 0.006,inactive: 0.01,inactive: 0.257,inactive: 0.114,inactive: 0.059,–
